Drawing on paper PMC8196014, this text covers binding for two substances.

No constants are given. Whether binding was seen depends on the method and setting. Binding seen in cells or lysates may run through a third protein. A result given as binding can be weak or reduced; the word gives no strength. Where a sequence is shown, tags or fusion partners need not be part of it.

This assay deals with T1, GST-LATS1-Kinase region (UniProt O95835).
T1 sequence: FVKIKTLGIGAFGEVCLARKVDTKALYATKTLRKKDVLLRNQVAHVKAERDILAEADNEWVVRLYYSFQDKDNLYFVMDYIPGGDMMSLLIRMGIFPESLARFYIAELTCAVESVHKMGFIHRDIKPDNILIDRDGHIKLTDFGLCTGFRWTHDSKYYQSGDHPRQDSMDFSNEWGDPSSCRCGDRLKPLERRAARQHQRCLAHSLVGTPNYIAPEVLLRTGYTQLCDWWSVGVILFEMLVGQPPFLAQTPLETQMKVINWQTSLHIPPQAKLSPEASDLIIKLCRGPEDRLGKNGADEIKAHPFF
Description: pull-down; GST pull-down: lysates of HEK293 cells transfected with truncates of GFP-Kindlin-2 incubated in vitro with GST, GST-YAP or GST-LATS1-Kinase region; anti-GFP blot; only the target purified.

As for “GFP-Kindlin-2 N-terminal region (truncate) (domain or fragment)”, the binding entry is given as “binds”.
In the case of “GFP-Kindlin-2 middle region (truncate) (domain or fragment)” it was “binds”.
